Results as given in publication PMC9950139.
Results are given in words; binding and its absence hold for the method and conditions named. Binding seen in cells or lysates may run through a third protein. Some entries that bind do so weakly or less than the wild type.

Protein sequences, listed by entry. Tags and fused reporters are not part of them.
UniProt Q5IBH7: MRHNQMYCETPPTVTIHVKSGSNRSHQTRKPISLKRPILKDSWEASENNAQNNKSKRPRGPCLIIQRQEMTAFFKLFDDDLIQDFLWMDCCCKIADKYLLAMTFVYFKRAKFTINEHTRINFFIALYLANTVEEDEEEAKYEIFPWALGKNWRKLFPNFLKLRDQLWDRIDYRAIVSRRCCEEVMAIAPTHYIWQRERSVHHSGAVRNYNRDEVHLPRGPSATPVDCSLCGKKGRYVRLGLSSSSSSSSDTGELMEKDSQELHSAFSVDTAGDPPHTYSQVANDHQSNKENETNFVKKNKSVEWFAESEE
UniProt Q5MJ70: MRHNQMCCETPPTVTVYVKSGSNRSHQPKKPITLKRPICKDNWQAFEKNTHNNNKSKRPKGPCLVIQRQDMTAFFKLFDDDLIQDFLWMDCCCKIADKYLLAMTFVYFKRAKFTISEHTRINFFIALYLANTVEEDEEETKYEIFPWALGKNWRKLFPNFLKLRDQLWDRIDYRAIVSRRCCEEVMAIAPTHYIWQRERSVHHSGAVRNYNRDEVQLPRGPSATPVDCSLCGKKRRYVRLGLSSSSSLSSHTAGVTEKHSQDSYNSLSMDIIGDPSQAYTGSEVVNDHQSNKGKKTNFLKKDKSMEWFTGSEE
UniProt P23804: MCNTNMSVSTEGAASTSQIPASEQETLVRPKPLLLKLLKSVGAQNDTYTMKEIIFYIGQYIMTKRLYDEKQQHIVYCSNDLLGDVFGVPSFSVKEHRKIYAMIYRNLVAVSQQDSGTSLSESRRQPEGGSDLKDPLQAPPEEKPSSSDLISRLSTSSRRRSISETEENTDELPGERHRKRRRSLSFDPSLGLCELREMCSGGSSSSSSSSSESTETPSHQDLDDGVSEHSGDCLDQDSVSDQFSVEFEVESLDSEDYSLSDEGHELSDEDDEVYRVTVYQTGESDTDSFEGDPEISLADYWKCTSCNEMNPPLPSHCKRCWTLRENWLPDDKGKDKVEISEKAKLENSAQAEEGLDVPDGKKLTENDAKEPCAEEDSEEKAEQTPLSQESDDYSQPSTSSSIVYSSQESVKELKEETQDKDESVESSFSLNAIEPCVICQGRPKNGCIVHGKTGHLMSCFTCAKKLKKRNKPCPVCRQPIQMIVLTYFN
UniProt Q00987: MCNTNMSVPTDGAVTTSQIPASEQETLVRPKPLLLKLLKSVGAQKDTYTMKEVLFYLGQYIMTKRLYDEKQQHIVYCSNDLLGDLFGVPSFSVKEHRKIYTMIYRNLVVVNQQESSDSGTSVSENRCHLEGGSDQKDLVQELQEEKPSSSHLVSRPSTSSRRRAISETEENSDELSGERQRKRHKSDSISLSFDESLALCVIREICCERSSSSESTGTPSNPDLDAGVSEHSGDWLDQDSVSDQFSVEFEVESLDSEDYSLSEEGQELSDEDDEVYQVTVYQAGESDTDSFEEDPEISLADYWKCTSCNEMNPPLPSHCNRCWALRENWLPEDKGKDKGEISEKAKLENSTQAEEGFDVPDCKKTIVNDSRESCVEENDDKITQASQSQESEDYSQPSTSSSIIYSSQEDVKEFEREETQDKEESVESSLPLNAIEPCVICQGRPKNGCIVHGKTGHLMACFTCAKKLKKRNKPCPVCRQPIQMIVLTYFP
UniProt P46934: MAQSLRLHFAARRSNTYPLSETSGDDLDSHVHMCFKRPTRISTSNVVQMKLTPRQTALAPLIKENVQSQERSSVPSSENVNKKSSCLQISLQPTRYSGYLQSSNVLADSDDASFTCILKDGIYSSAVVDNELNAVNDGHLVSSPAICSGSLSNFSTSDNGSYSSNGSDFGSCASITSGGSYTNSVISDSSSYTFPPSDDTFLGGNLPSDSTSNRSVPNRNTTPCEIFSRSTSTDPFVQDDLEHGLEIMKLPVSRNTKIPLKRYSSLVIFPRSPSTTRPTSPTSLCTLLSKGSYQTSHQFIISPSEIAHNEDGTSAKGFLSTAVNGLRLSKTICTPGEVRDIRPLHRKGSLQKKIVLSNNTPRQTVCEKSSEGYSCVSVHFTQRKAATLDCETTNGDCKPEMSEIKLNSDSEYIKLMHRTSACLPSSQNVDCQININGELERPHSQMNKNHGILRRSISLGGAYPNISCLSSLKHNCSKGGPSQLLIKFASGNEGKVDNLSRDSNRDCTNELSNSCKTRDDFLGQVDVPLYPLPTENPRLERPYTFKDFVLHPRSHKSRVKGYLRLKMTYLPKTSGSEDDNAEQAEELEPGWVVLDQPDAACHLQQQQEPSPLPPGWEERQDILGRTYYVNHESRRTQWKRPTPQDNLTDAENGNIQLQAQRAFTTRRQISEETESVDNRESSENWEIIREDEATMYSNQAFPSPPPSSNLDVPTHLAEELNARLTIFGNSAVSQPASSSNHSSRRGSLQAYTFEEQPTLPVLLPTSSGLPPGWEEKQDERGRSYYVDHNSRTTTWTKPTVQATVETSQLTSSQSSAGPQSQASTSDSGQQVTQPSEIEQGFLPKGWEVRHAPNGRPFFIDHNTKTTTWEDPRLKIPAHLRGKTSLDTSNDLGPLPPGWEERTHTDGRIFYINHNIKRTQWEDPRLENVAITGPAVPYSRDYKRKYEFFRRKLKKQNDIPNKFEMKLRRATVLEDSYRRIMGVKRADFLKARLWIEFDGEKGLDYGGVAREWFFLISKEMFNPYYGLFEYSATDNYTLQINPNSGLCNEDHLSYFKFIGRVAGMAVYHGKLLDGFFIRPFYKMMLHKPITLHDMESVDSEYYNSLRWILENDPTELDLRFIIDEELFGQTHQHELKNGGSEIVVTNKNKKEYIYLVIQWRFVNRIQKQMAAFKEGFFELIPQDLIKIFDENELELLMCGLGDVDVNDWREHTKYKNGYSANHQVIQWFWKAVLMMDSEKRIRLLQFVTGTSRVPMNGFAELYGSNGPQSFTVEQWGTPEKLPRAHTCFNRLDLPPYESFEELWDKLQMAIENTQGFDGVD

What was measured:
[1] = target: SPY1 (endogenous) (mouse (endogenous in NSC34)) (UniProt Q5IBH7); assay: co-IP; endogenous proteins in hSOD1^G93A and WT cells (NSC34-derived); RIPA lysate; protein A + G magnetic beads at 4 °C
[2] = target: SPY1-Flag (Speedy/RINGO cell cycle regulator family member A with Flag-tag) (UniProt Q5MJ70); assay: co-IP; hSOD1^G93A and WT cells (NSC34-derived) co-transfected with SPY1-Flag and an HA-tagged partner for 24 h; RIPA lysate; immunoprecipitated with anti-Flag or anti-HA on protein A + G magnetic beads at 4 °C; immunoblotted with anti-HA or anti-Flag

| binding [1] | binding [2] | Substance |
| --- | --- | --- |
| binds |  | MDM2 (endogenous) (from UniProt P23804 1-489) |
|  | binds | MDM2-HA (from UniProt Q00987 1-491) |
|  | binds | NEDD4-HA (from UniProt P46934 1-1319) |
